# From article PMC10163288
# The list shows a part of the results.
# B1: il2ra_site1_3nfp_normal_mot_HHH_b2_02159_000000237_0001_1_17_H_._HHH_b2_04693_af2_0001_0000200006_0000001_0_af2pred_0001_af2pred_1 (protein)
# chain: SSSSSYAEELVKRAEEIAKELGDEELLRELQELLERAKKEGDPRVFEELVRLAARILLRNRSSSS
# B2: il2ra_site2_3nfp_sap_18_mot_HHH_b1_04324_000000249_0001_1_20_H_._HHH_b2_02946_0001_0000200024_0000001_0_0001 (protein)
# chain: SDWEEIFQLVARIVALAYERNDHEAFARATELLEKALEAANKNDEEALKEIEEEVRKVLEELESS
# B3: il2ra_site2_2erj_normal_mot_HHH_b1_00612_000000025_0001_42_56_H_._HHH_b2_03934_0001_0000600010_0000001_0 (protein)
# chain: SSSSDKELWEKVAEASIEALRLFKEGNPEEARELLEELLRELQELNNPDLARYVELARREASSSS
# B4: il2ra_site2_3nfp_normal_mot_HHH_b1_08498_000000146_0001_21_37_H_._HHH_b1_08008_0001_0000100001_0000001_0 (protein)
# chain: SSSSDEEHLEAATRLIRAAAWALNDPELERRAEELLEEIKEHGDPELKQELAELTHEAFELSSSS
# B5: il2ra_site1_2b5i_sap_20_mot_HHH_b1_02657_000000080_0001_1_17_H_._78d38d65aba856c43c32fb61d368d223_0001_0001_0000200013_0000001_0_0001 (protein)
# chain: SSSSDHEETREVVRIIWRLMFRFNLSAEKAQELARLAAELLDEGVSVEEIEELLRELAKRLSSSS
# B6: il2ra_site1_2b5i_normal_mot_0e5a94e4a5addaac739760efb25f0f5d_0001_000000246_0001_18_32_H_._c3f6a624e0b36238ad1b06fe81c08c0c_0001_1_af2_0001_0000500026_0000001_0 … (protein)
# chain: VIEKLADLAEESGDKELIKFVIRLAYEYEKTKDPKYLEQAKTLLELLEKDLEKAKAYMKELKEKK
# B7: il2ra_site1_3nfp_normal_mot_HHH_b1_01231_af2_000000170_0001_1_16_H_._HHH_b1_02076_0001_0000200037_0000001_0_af2pred_0001_af2pred_1_swapped (protein)
# chain: SSSSSSREELELKERVLRLLARIRDPEEARRVLEEAEELAKELGDERLLEELEKLLKRLGSSSSS
# B8: il2ra_site1_2b5i_normal_mot_HHH_b2_04910_000000118_0001_1_19_H_._HHH_b2_05595_af2_0001_0000500031_0000001_1_af2pred_0001_af2pred (protein)
# chain: SSSSSLTKEAFRLFEEANRLFRNGNPEEAQKLLEKAEELAEEGNNKSLVKSIRAALRLLESSSSS
# B9: il2ra_site2_3nfp_normal_mot_HHH_b2_00232_000000252_0001_23_39_H_._HHH_b2_01857_0001_0000200024_0000001_0_1_af2pred_0001_af2pred (protein)
# chain: SSSSSDEEEEKVEELLEEAEHIEDEEELEDILALAFLIAFEAEDPELLRLVREVSAELLQSSSSS
# B10: il2ra_site2_3nfp_normal_mot_HHH_b1_03316_000000041_0001_39_56_H_._HHH_b2_03878_0001_0000300032_0000001_0 (protein)
# chain: SSSSDEEERLHEEVRELIEEGDPEEAQQALARAAELAFETNDHRLWMLIIELAELLLEFERSSSS
# B11: il2ra_site1_2b5i_normal_mot_3116615af0ee64d731c1c85d8523bf51_0001_000000216_0001_15_32_H_._74ae6eb07f9420050133e9940f1af965_0001_0001_0000100004_0000001_0_1_af2 … (protein)
# chain: DIEARIAAAAAELGVDPKRLKALVKAAQDALDVPPEKALDLVKEALEKAGGNVRKAMELLEALLK
# B12: il2ra_site1_3nfp_normal_mot_HHH_b1_01417_af2_000000204_0001_1_19_H_._HHH_b1_00894_0001_0000100002_0000001_0 (protein)
# chain: SSSSNAAERFTERAEELAKELGDEELVELLRELLEEAQKKGDSRVARELIKVIAKVQLKYESSSS
# B13: il2ra_site1_3nfp_sap_16_mot_HHH_b1_01335_af2_000000105_0001_39_53_H_._HHH_eva_0536_0001_0000600013_0000001_0_0001 (protein)
# chain: SSSSSSEWEEAQEAARELMRLWREGDKEKAREVAEELLELAERMNDKVAERLARQYLEVLSSSSS
# B14: il2ra_site2_3nfp_sap_16_mot_HHH_b2_07129_000000128_0001_19_36_H_._HHH_b1_05592_af2_0001_0000300011_0000001_0_0001_af2pred_0001_1_af2pred_swapped (protein)
# chain: DTITEVIRELREEGDPELALLLFAVLAEVEALDDPELEEELEKLIELAKRDPERAKELAKELLQR
# B15: il2ra_site2_3nfp_sap_19_mot_HHH_b1_03745_000000053_0001_41_56_H_._HHH_b1_03974_0001_0000100003_0000001_0_0001 (protein)
# chain: SSSSDIEERLKELIEQLEELEEKNDEDELAQLLLELMELAAKNNDEEAARAVLEVYARLRSSSSS
# B16: il2ra_site1_1z92_normal_mot_01209686ea234b34325f918445e6eade_0001_af2_000000154_0001_18_33_H_._HHH_b1_06503_0001_0000300032_0000001_0_af2pred_0001_af2pred_1 (protein)
# chain: SSSSDEEELREFVEELVRLLGLDEKAKRALERSLELALRQGISPESIKKALEKNAELDQKSSSSS
# B17: il2ra_site2_2erj_normal_mot_HHH_b1_06554_af2_000000190_0001_44_57_H_._HHH_b2_05554_0001_0000100004_0000001_0_af2pred_0001_af2pred (protein)
# chain: SSSSSSDLEERLEELLEEAKKIPDKEEALKLLQEALEIALELNDDELLELVTEAARESSSSSSSS
# B18: il2ra_site2_2erj_normal_mot_af86707857d369f3e1d85dcabc5f9321_0001_000000201_0001_14_29_H_._HHH_b2_00608_0001_0000300022_0000001_0 (protein)
# chain: SSSSDEEEVQELLREAKRLLENGDPERAAAVAISAAHLAAKLDDEELLREISKLFEEIYGSSSSS
# Target: il2ra, P01589
# Test: yeast display titration
row,Binder,apparent Kd
1,B1,inactive: no binding seen
2,B2,inactive: no binding seen
3,B3,inactive: no binding seen
4,B4,inactive: no binding seen
5,B5,inactive: > 6.82 nM
6,B6,inactive: no binding seen
7,B7,inactive: no binding seen
8,B8,inactive: no binding seen
9,B9,inactive: no binding seen
10,B10,inactive: no binding seen
11,B11,inactive: no binding seen
12,B12,inactive: no binding seen
13,B13,inactive: no binding seen
14,B14,inactive: no binding seen
15,B15,inactive: no binding seen
16,B16,inactive: no binding seen
17,B17,inactive: no binding seen
18,B18,inactive: no binding seen

# 2 entries from above, with tabs:
row	Binder	apparent Kd
8	B8	inactive: no binding seen
13	B13	inactive: no binding seen
